Some of the results follow. Most entries show no effect beyond the scatter of the controls.
The targets below were run with CN[C@@H]1C[C@H]2O[C@@](C)([C@@H]1OC)n1c3ccccc3c3c4c(c5c6ccccc6n2c5c31)C(=O)NC4 [staurosporine] (assay: log2 fold change of tryptic peptide abundance, ligand vs vehicle (limited proteolysis) (log2 ratio); higher = more trypsin-susceptible (destabilized)). Settings: ligand concentration: 20 uM; sample: K562 cleared lysate; digestion: 4 min, 22 C (HT-PELSA RT4min, Orbitrap Astral).

Protein sequences, listed by entry. Tags and fused reporters are not part of them. Lines headed by an entry give the natural chain unless they say otherwise; changes in a name come on top.
UniProt O43707, whole entry: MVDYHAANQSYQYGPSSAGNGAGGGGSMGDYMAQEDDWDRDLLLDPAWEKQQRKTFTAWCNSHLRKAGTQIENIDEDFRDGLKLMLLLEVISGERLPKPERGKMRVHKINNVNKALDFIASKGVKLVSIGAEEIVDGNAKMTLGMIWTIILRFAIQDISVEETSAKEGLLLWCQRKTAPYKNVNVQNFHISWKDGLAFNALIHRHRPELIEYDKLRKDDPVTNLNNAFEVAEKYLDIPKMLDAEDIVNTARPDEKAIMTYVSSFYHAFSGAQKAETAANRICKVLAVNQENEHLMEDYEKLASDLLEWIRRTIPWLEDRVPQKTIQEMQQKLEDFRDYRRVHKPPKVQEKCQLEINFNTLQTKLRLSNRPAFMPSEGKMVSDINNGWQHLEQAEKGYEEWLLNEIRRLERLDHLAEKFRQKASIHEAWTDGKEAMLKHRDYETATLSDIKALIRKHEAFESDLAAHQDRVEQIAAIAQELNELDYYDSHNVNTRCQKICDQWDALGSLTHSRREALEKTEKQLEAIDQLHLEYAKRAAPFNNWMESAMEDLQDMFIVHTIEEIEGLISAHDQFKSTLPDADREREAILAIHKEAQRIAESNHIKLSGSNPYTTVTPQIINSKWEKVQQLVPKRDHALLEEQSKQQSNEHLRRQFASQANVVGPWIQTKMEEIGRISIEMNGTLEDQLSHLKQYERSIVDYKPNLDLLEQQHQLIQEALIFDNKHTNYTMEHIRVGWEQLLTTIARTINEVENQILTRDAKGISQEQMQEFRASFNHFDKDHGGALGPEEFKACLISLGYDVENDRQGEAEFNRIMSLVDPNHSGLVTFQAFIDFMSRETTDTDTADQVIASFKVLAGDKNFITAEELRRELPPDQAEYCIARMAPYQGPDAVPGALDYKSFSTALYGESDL
UniProt O60890: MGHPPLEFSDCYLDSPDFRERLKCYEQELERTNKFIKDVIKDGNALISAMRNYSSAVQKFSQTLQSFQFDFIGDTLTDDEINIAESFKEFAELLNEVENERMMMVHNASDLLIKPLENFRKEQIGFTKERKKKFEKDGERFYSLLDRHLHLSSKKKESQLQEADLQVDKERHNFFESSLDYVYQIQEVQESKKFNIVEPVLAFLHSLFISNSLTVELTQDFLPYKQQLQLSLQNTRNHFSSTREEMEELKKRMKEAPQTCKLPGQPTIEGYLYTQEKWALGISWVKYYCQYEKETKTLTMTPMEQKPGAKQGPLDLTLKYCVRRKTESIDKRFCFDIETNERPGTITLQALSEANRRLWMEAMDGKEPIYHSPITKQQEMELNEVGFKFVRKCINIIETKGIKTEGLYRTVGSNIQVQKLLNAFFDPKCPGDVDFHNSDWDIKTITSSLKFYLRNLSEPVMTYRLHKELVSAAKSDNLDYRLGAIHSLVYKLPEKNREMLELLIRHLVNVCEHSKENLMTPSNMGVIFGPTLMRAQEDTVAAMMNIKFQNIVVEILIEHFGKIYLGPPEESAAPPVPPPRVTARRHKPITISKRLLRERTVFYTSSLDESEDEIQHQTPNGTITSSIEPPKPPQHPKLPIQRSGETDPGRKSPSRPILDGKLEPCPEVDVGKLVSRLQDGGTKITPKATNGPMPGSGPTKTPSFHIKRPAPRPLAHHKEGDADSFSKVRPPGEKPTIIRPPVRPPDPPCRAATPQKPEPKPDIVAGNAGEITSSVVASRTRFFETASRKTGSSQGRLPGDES
UniProt O60779: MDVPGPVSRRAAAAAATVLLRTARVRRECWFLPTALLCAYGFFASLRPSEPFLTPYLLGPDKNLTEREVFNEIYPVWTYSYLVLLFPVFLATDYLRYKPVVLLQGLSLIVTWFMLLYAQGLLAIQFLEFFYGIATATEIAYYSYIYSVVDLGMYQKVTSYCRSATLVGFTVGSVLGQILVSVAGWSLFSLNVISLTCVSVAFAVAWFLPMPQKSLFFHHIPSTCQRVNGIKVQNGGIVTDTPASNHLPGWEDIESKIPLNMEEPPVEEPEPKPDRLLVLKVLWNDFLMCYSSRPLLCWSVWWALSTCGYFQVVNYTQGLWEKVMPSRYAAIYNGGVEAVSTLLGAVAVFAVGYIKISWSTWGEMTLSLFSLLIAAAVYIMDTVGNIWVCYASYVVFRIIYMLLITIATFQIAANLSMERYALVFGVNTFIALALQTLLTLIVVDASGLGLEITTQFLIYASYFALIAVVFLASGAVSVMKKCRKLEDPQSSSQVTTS
UniProt O43172: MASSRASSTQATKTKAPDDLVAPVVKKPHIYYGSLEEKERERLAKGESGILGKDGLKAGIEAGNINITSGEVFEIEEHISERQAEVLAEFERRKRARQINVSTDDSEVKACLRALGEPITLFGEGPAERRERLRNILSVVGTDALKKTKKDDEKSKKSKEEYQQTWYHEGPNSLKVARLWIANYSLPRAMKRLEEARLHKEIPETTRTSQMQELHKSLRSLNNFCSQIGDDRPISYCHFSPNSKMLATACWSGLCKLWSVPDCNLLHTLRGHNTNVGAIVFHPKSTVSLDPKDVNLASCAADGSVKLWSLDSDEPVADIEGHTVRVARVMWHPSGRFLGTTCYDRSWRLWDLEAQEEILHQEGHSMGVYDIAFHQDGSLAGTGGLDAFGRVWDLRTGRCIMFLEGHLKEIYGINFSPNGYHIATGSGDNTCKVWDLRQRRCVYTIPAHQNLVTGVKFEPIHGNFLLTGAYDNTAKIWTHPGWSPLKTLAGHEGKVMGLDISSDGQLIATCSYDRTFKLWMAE
UniProt O15460: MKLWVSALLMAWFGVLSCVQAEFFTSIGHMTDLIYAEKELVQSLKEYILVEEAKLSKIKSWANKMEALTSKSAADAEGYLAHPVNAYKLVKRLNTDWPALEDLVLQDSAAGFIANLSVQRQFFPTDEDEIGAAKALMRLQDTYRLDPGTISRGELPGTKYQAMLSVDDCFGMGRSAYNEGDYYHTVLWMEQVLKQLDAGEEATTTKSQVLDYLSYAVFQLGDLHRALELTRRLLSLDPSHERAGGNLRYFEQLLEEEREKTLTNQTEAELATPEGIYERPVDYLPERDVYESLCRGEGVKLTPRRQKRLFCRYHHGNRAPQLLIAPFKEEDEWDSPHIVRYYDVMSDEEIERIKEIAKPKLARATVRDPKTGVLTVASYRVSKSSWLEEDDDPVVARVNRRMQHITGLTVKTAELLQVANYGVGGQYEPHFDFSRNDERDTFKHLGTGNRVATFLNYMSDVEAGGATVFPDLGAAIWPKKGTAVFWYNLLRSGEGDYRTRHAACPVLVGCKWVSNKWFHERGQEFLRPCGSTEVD
UniProt O75368: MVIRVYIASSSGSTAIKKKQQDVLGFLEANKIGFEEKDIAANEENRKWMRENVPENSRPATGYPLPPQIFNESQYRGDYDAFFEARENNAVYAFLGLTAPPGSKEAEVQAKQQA
UniProt O75072: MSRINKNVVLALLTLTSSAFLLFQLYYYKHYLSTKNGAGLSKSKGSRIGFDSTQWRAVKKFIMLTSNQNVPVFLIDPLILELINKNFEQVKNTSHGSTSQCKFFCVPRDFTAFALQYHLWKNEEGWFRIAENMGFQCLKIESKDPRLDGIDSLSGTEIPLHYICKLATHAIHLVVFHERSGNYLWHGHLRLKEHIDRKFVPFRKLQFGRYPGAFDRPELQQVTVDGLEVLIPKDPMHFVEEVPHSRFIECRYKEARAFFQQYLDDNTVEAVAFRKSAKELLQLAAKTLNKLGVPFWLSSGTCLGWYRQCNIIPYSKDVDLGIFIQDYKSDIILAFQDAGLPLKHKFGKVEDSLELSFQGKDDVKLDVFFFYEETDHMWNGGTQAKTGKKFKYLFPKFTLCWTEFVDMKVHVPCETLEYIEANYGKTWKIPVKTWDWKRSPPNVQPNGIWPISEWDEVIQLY
UniProt O75347: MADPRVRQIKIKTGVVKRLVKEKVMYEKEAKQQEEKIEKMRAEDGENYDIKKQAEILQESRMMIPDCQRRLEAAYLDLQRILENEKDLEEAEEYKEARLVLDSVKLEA
UniProt O60333: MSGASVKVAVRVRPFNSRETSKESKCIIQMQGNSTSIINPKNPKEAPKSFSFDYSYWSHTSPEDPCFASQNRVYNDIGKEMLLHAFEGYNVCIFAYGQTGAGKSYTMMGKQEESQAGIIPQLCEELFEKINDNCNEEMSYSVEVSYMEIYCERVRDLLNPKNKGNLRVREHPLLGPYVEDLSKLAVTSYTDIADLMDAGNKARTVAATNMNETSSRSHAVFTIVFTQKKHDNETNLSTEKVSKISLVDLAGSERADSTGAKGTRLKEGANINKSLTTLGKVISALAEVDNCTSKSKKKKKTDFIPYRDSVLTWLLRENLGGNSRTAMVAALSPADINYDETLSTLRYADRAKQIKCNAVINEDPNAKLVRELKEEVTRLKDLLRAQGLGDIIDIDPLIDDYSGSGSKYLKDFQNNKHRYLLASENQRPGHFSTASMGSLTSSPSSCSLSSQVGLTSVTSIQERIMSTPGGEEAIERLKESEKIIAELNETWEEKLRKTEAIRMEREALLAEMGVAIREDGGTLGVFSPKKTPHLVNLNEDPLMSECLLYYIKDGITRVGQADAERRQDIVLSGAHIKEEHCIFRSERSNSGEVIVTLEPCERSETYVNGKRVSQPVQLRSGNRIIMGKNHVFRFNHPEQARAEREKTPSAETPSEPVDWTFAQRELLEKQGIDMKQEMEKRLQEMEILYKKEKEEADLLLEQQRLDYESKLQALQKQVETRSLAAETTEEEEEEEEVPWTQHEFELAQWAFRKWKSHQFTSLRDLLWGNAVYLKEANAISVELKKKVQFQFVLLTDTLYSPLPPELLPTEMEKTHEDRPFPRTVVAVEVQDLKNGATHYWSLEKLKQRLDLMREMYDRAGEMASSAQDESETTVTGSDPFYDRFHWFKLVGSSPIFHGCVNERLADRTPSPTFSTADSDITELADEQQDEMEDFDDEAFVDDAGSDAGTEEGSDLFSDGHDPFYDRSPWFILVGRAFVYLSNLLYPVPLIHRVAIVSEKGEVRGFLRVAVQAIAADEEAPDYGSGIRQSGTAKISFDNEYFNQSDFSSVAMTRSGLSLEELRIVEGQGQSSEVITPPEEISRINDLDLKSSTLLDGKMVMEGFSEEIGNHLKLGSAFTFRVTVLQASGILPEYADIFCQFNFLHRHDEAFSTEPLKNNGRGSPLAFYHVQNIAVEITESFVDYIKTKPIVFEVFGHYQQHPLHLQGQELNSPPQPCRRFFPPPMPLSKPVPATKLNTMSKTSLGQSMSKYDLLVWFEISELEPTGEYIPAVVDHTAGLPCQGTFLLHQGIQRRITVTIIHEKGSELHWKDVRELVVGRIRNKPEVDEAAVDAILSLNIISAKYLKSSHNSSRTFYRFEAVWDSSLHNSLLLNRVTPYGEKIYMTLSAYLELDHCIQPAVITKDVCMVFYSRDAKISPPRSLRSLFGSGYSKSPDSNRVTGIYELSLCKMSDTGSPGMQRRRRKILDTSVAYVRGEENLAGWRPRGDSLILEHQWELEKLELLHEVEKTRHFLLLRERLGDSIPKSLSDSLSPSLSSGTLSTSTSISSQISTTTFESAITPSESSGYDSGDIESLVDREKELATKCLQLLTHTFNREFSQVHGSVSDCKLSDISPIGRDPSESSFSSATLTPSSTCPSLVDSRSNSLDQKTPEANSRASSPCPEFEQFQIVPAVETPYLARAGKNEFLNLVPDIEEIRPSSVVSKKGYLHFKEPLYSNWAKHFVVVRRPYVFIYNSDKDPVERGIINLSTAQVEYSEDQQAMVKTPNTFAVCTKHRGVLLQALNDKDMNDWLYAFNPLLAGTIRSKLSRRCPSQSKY
UniProt O43293: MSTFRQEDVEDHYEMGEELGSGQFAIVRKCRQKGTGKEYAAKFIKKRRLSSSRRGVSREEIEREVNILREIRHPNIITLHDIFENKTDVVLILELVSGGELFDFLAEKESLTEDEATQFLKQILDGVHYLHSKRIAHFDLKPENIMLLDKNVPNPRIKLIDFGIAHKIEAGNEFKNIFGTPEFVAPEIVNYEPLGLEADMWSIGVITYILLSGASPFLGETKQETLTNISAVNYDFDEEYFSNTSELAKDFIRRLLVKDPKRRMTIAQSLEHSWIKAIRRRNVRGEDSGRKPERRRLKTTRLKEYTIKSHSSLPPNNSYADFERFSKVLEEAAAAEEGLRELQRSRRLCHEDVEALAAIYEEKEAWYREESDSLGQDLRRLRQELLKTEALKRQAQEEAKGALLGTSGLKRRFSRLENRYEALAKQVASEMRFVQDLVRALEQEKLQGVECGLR
UniProt O60869: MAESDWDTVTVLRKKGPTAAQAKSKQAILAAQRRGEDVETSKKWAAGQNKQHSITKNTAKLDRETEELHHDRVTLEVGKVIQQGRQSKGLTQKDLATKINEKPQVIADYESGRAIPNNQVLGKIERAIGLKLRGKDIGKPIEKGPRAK

Target | log2 fold change
ACTN4 (peptide sequence: STLPDADRER, peptide start residue: 575) (UniProt O43707) | 1.21
OPHN1 (peptide sequence: QQLQLSLQNTR, peptide start residue: 226) (UniProt O60890) | 0.588
SLC19A2 (peptide sequence: AAAAAATVLLR, peptide start residue: 11) (UniProt O60779) | -0.0235
PRPF4 (peptide sequence: LHKEIPETTR, peptide start residue: 198) (UniProt O43172) | 0.89
P4HA2 (peptide sequence: EYILVEEAK, peptide start residue: 46) (UniProt O15460) | -0.0883
SH3BGRL (peptide sequence: DIAANEENRK, peptide start residue: 38) (UniProt O75368) | -0.817
UniProt O75072 (peptide sequence: NGAGLSK, peptide start residue: 36) | -0.397
TBCA (peptide sequence: AEDGENYDIKKQAEILQESR, peptide start residue: 42) (UniProt O75347) | 0.381
KIF1B (peptide sequence: EFSQVHGSVSDCK, peptide start residue: 1596) (UniProt O60333) | -0.327
DAPK3 (peptide sequence: GALLGTSGLKR, peptide start residue: 401) (UniProt O43293) | -0.188
EDF1 (peptide sequence: DIGKPIEKGPR, peptide start residue: 136) (UniProt O60869) | 0.148

An excerpt of these results, with each value named.
OPHN1 (peptide sequence: QQLQLSLQNTR, peptide start residue: 226) (UniProt O60890)
  log2 fold change: 0.588
SLC19A2 (peptide sequence: AAAAAATVLLR, peptide start residue: 11) (UniProt O60779)
  log2 fold change: -0.0235
